Among all 390,000 compounds or so, about 610 (0.16%) were called active. This list was built around the results that the source calls inconclusive (neither active nor inactive); the mix of calls is not that of the screen. Calls follow the shape of the dose curve; as a rule, active = well fitted inhibition curve with a large enough effect; inconclusive = small, poorly fitted or top-dose-only effect, or effect the other way, or another doubt; inactive = no such curve, though single readings can be large or run the other way. Potencies of inconclusive entries are doubtful fits and often do not repeat.
Assay: Nrf2 qHTS screen for inhibitors: counterscreen for cytotoxicity
Conditions: A549 ARE-Fluc cells, CellTiter-Fluor viability, 18-24 h; activity change, negative = cytotoxicity: at 46 µM (top of the series)
Method in brief: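 Cytotoxicity counterscreen: CellTiter-Fluor fluorescence was measured in A549 ARE_Fluc cells after 18-24 h of compound exposure in a concentration series. The subsequent BugLite luminescent read reports ARE-luciferase activity.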
For COc1ccc(NC2CCCN(C(=O)c3c(C)noc3C)C2)cc1 (stereo unspecified), the Potency was inconclusive: 6.51 µM [activator, partial curve, poor fit].
With CSc1ccccc1C(=O)Nc1ccc(C)cc1C the “activity change, negative = cytotoxicity” value was inactive: -0.471%.
In the case of Cc1ccc(C)c(OCCn2cc(/C=C(\C#N)C(=O)NCC3CCCO3)c3ccccc32)c1 (stereo unspecified), the Potency is reported as inconclusive: 20.6 µM [falling, partial curve, poor fit].
In the case of CCCS(=O)(=O)c1nnnn1-c1cccc(OC)c1, the Potency is reported as inconclusive: 18.4 µM [falling, single point].
With CCCNC1=C(N(C(C)=O)c2cccc(F)c2)C(=O)c2ccccc2C1=O the Potency was inconclusive: 20.6 µM [falling, single point].
With COc1ccc(CCNS(=O)(=O)c2cc(-c3onc(C)c3C)ccc2OC)cc1OC the Potency was inconclusive: 20.6 µM [activator, partial curve, poor fit].
In the case of CSc1nc2ncncc2[nH]1, the Potency is reported as inconclusive: 0.164 µM [falling, partial curve, poor fit].
In the case of C[C@H](CO)N1C[C@H](C)[C@H](CN(C)S(=O)(=O)c2cn(C)cn2)Oc2ccc(NC(=O)Nc3ccc(C(F)(F)F)cc3)cc2CC1=O, the “activity change, negative = cytotoxicity” value is reported as inactive: -9.69%.
With CC(Oc1ccc(F)cc1)C(=O)Nc1nc(-c2ccccn2)cs1 (stereo unspecified) the Potency was inconclusive: 10.3 µM [falling, partial curve, poor fit].
In the case of C[C@]12c3[nH]c4cc(-c5ccco5)ccc4c3CCN1C(=O)[C@@H](CC(=O)NCCC1=CCCCC1)C[C@@H]2C(=O)N1CCCCC1, the Potency is reported as inconclusive: 32.6 µM [falling, single point].
In the case of CCC(C)C1NC(=S)N(Cc2ccccc2)C1=O (stereo unspecified), the Potency is reported as inconclusive: 32.6 µM [activator, partial curve, poor fit].
For Cc1snc(S(=O)(=O)/C(C#N)=N/Nc2ccc(C(F)(F)F)cc2)c1C#N, the Potency was inconclusive: 20.6 µM [falling, single point].
In the case of CCOc1ncccc1C(=O)Nc1ccc(OC)c(S(=O)(=O)N2CCCCC2)c1, the “activity change, negative = cytotoxicity” value is reported as inactive: -11.7%.
In the case of COc1ccc(-n2c(N)c(C(=O)NCC3CCCO3)c3nc4ccccc4nc32)c(OC)c1 (stereo unspecified), the Potency is reported as inconclusive: 4.11 µM [activator, single point].
In the case of Cc1nn2c(Nc3ccccc3)c3c(nc2c1-c1ccccc1)CCC3, the Potency is reported as inconclusive: 18.4 µM [activator, partial curve, poor fit].
In the case of O=C(CCC1N=C2c3ccccc3N=C(SCC(=O)Nc3ccc(F)cc3)N2C1=O)NCc1cccs1 (stereo unspecified), the “activity change, negative = cytotoxicity” value is reported as inactive: 2.47%.
For O=C(Nc1ccccc1F)n1ncc2cc(Cl)ccc21, the “activity change, negative = cytotoxicity” value was inactive: 3.21%.
In the case of O=S(=O)(c1cccc(Cl)c1)N1CCN(c2nc(-c3ccccc3)nc3ccccc23)CC1, the “activity change, negative = cytotoxicity” value is reported as inactive: -1.53%.
In the case of O=C1NC[C@H](c2ccccc2)OC(=O)[C@@H](Cc2ccc(F)cc2)C/C=C\C[C@H]1CC(=O)N(CCO)Cc1ccccc1, the Potency is reported as inconclusive: 18.4 µM [falling, single point].
For CN(CC(=O)Nc1ccc(OC(F)(F)F)cc1)C1CCCCC1, the Potency was inconclusive: 32.6 µM [falling, partial curve, poor fit].
For CCOc1ccc2nc(N3CCCC(C(=O)NCCCN4CC(C)CC(C)C4)C3)sc2c1 (stereo unspecified), the Potency was inconclusive: 29.1 µM [falling, partial curve, poor fit].
For CN1CCN(c2nc(Nc3ccc(F)cc3)nc(Nc3ccc(F)cc3)n2)CC1, the “activity change, negative = cytotoxicity” value was inactive: 9.81%.
In the case of CCOc1ccc(Nc2sc(C(=O)c3cccc(OC)c3)c(N)c2S(=O)(=O)c2ccccc2)cc1, the “activity change, negative = cytotoxicity” value is reported as inactive: -5.66%.
In the case of COc1ccc(-c2cc(C(F)(F)F)n3ncc(C(=O)NCC4CCCO4)c3n2)cc1OC (stereo unspecified), the “activity change, negative = cytotoxicity” value is reported as inactive: 2.48%.
In the case of COc1ccc(-c2csc(NC(=O)Cc3ccccc3F)n2)cc1OC, the Potency is reported as inconclusive: 25.9 µM [falling, partial curve, poor fit].
With O=C(O)C1=CC[C@@H](c2ccc(Cl)cc2)N(S(=O)(=O)c2ccc(Cl)cc2)[C@H]1c1cccc(Cl)c1 the Potency was inconclusive: 18.4 µM [falling, partial curve, poor fit].
For Cc1ccsc1CN(C(=O)COc1cccc(C)c1C)C1CCS(=O)(=O)C1 (stereo unspecified), the “activity change, negative = cytotoxicity” value was inactive: 0.201%.
For O=C(O)c1cc(N=Nc2c(O)ccc3ccccc23)cc(C(=O)O)c1, the Potency was inconclusive: 7.31 µM [falling, partial curve].
With Cc1cc(NC(=O)CSc2nc3c([nH]c4ccccc43)c(=O)n2-c2cccc(C(F)(F)F)c2)no1 the Potency was inconclusive: 8.2 µM [falling, partial curve].
With CNc1oc(-c2cccc3ccccc23)nc1C#N the “activity change, negative = cytotoxicity” value was inactive: 0.281%.
For CCCCNC(=O)c1cnc2sc(N3CCCCCC3)nn2c1=O, the “activity change, negative = cytotoxicity” value was inactive: -0.0062%.
For O=C(Nc1ccc2nc3n(c(=O)c2c1)CCCCC3)c1c(F)ccc([N+](=O)[O-])c1F, the Potency was inconclusive: 20.6 µM [falling, single point].
With COc1cc(CCc2ccccc2)c(C(=O)O)c(O)c1CC=C(C)C the “activity change, negative = cytotoxicity” value was inactive: -12.3%.
In the case of Cc1ccc(OCCOC(=O)CN2C(=O)NC3(CCCC3)C2=O)cc1, the Potency is reported as inconclusive: 32.6 µM [falling, partial curve, poor fit].
With COc1cccc(C2c3c(ncn(-c4ccccc4SC)c3=N)Oc3ccc4ccccc4c32)c1 (stereo unspecified) the “activity change, negative = cytotoxicity” value was inactive: -4.96%.
With COc1ccc(C2c3c(ncn(CCCN4CCOCC4)c3=N)Oc3ccc4ccccc4c32)cc1OC (stereo unspecified) the Potency was inconclusive: 20.6 µM [falling, single point].
With CCN(CC)CCn1c(=N)n(CC(O)c2ccco2)c2ccccc21 (stereo unspecified) the Potency was inconclusive: 5.17 µM [falling, partial curve, poor fit].
With COc1cc(OC)c2c(OC)cccc2n1 the “activity change, negative = cytotoxicity” value was inactive: 18.9%.
With COc1ccc(/C=C/C(=O)Nc2ccc3nc4c(c(Nc5ccc(OC)c(OC)c5)c3c2)CCCC4)cc1 the Potency was inconclusive: 29.1 µM [falling, single point].
With COc1ccc(-c2noc(CSc3nnc(Cc4ccccc4)n3-c3cccc(C)c3)n2)cc1 the Potency was inconclusive: 29.1 µM [falling, single point].
For CCOc1cc(CNCCSc2nnnn2C)cc(Br)c1OCc1ccccc1F, the Potency was inconclusive: 16.4 µM [falling, single point].
With CCN(CC)c1ccc2cc(C(C)=O)c(=O)oc2c1 the Potency was inconclusive: 29.1 µM [activator, single point].
For CCN=C1S/C(=C\c2ccc(Sc3ccc(Cl)cc3)o2)C(=O)N1CC, the Potency was inconclusive: 29.1 µM [activator, partial curve, poor fit].
For O=C(COc1ccccc1)Nc1nnc(SCc2cc(=O)n3cc(Cl)ccc3n2)s1, the “activity change, negative = cytotoxicity” value was inactive: 8.03%.
With COc1ccc(CCNC(=O)CCS(=O)(=O)c2cc3c(cc2Cl)NC(=O)CO3)cc1OC the “activity change, negative = cytotoxicity” value was inactive: 10.1%.
For O=C(CS(=O)CC(=O)NC12CC3CC(CC(C3)C1)C2)Nc1ccc(F)cc1 (stereo unspecified), the “activity change, negative = cytotoxicity” value was inactive: 14%.
For COc1ccc(CNCCC(c2ccc(OC(C)C)cc2)C(C)C)cc1OC (stereo unspecified), the Potency was inconclusive: 25.9 µM [falling, single point].
With c1ccc(N2CCN(c3nc4cc5c(cc4s3)OCCO5)CC2)cc1 the Potency was inconclusive: 20.6 µM [falling, partial curve, poor fit].
For COc1ccc(OC)c(NC(=O)Nc2ccc(Cl)cc2)c1, the Potency was inconclusive: 29.1 µM [falling, single point].
In the case of COc1ccc(NC(=O)N2c3ccc(OC)cc3C(C)=CC2(C)C)cc1, the Potency is reported as inconclusive: 32.6 µM [activator, partial curve, poor fit].
For CCOc1ccc2nc(N3C(=O)/C(=C/c4ccccc4)NC3=S)sc2c1, the Potency was inconclusive: 3.66 µM [activator, single point].
For CCSc1nccc(-c2nn(-c3ccc(C)cc3)ccc2=O)n1, the Potency was inconclusive: 20.6 µM [falling, partial curve, poor fit].
In the case of COc1ccc(/C=C2\Oc3cc(OCC(=O)N4CCC(C(=O)O)CC4)ccc3C2=O)c(OC)c1OC, the Potency is reported as inconclusive: 13 µM [falling, partial curve, poor fit].
For COc1cc(CNc2ccc(N3CCCC3)cc2)cc(Cl)c1OC, the Potency was inconclusive: 23.1 µM [falling, single point].
In the case of COc1cccc(-c2nnc3n2N=C(C(C)(C)C)CS3)c1, the “activity change, negative = cytotoxicity” value is reported as inactive: -27.1%.
With C/C(Cn1nnc([N+](=O)[O-])n1)=N\NC(=O)c1ccc(Cl)c(Cl)c1 the “activity change, negative = cytotoxicity” value was inactive: -12.2%.
In the case of O=C(NCc1ccccn1)c1cccc(S(=O)(=O)NCc2ccccc2)c1, the “activity change, negative = cytotoxicity” value is reported as inactive: -8.77%.
With CC(C)n1cnc2c(Nc3cccc(Cl)c3)nc(N(CCO)CCCO)nc21 the Potency was inconclusive: 23.1 µM [falling, single point].
For CCC1CCCCN1C(=O)CCS(=O)(=O)c1cc2c(cc1C)NC(=O)CO2 (stereo unspecified), the “activity change, negative = cytotoxicity” value was inactive: 1.32%.
In the case of C=CCNC(=O)c1cccc2c1C(=O)c1ccc(N3CCCC3)cc1S2(=O)=O, the Potency is reported as inconclusive: 16.4 µM [falling, partial curve, poor fit].
With COc1cccc2sc(Nc3nc(-c4ccncc4)cs3)nc12 the Potency was inconclusive: 5.8 µM [falling, partial curve, poor fit].
For NC(=O)c1ccc[n+](Cc2ccccc2)c1, the Potency was inconclusive: 4.61 µM [falling, partial curve, poor fit].
In the case of CCS(=O)(=O)c1ncc(Cl)c(C(=O)NCc2ccccc2)n1, the Potency is reported as inconclusive: 29.1 µM [falling, single point].
In the case of CCN(CC)CCOc1c(Br)ccc2c1sc1nc3n(c(=O)c12)CCC3, the Potency is reported as inconclusive: 20.6 µM [falling, partial curve, poor fit].
In the case of CC1=C(C(=O)OC(C)C)C(c2cn(-c3ccccc3)nc2-c2cccs2)NC(=O)N1 (stereo unspecified), the Potency is reported as inconclusive: 29.1 µM [falling, single point].
In the case of COc1ccc(NC(=O)NCc2ccncc2)c(OC)c1, the Potency is reported as inconclusive: 32.6 µM [falling, partial curve, poor fit].
% is scaled to controls: 0 for no effect and ±100 for the full control effect; potency is read from the fitted curve at half-maximal effect.
